# The other results are listed elsewhere or left out. These are further read-outs of the screen, such as a control signal, another cell line or another target. No call is given for them. Compounds called inactive in the main read-out are mostly missing here. The note in brackets gives the kind of curve behind each potency; many fits are weak.
# Assay: qHTS Assay for Modulators of Lamin A Splicing
# Conditions: HeLa LMNA splicing GFP/RFP minigene ratio, 48 h
# Method in brief: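 S3 HeLa cells stably expressing lamin A-EGFP splicing minigene plus DsRed2, 600 cells/well, 48 h compound exposure at 37C. Laser-scanning cytometry; analysed as GFP (500-530 nm)/RFP (575-640 nm) total intensity ratio; 0.5% DMSO vehicle.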
# [1] = measured here: RFP viability control channel
# [2] = measured here: GFP splicing reporter channel
Structure (SMILES),AC50 [1],AC50 [2]
CC1CCc2sc(C(=O)Nc3ccc(C(N)=O)cc3)cc2C1 (stereo unspecified),"6.31 µM [falling, partial curve]",
CN(/N=C/c1cc([N+](=O)[O-])ccc1O)c1ccccc1,"7.08 µM [falling, partial curve, poor fit]","3.55 µM [falling, full curve]"
N#Cc1c(-c2ccccc2)c(-c2ccccc2)nn(CC(=O)NNC(=O)Nc2ccc(Cl)c(Cl)c2)c1=O,"35.5 µM [falling, single point]","35.5 µM [falling, single point]"
O=C(Cc1ccccc1)N(Cc1cccnc1)c1nc2c(F)cc(F)cc2s1,,"20 µM [falling, partial curve, poor fit]"
O=C(Nc1cc(Cl)cc(Cl)c1)c1ccc(F)c(S(=O)(=O)N2CCc3ccccc32)c1,"35.5 µM [rising, single point]",
COc1ccc(CCNC(=O)c2ccc3c(c2)N(Cc2c(F)cccc2Cl)C(=O)CS3)cc1OC,,"0.178 µM [falling, full curve, poor fit]"
O=C1CC[C@@H](CN(Cc2ccccc2)Cc2cn[nH]c2-c2cc3ccccc3o2)N1,"35.5 µM [falling, single point]","35.5 µM [falling, single point]"
CC(C)c1ccc(OCC(=O)NC(Cc2c[nH]c3ccccc23)C(=O)O)cc1 (stereo unspecified),,"5.62 µM [rising, single point]"
CC1=NN(C(=O)c2cc(C)nn2C)C(O)(C(F)(F)F)C1 (stereo unspecified),"12.6 µM [rising, partial curve, poor fit]",
Cn1c(=O)c(-c2ccc(Cl)cc2)nc2cnc(Oc3cccc(Cl)c3)nc21,"11.2 µM [falling, partial curve]","11.2 µM [falling, partial curve]"
N#Cc1ccc(-c2cccnc2)nc1SCc1ccc(Cl)cc1Cl,"0.891 µM [falling, full curve]",
C#C[C@@]1(O)CC[C@@H]2[C@@H]3CCC4=C(CCC(=O)C4)[C@H]3CC[C@]21C,"2.24 µM [rising, full curve]","1.26 µM [rising, full curve]"
O=C(c1cc([N+](=O)[O-])ccc1N1CCCCC1)N1CCc2ccccc21,"7.08 µM [rising, full curve, poor fit]",
Cc1cccc(NC(=O)C2C3CCC4C(CCC32)C4(Cl)Cl)c1 (stereo unspecified),"0.141 µM [rising, full curve, poor fit]",
CC(C)(C)N=C1C([N+](=O)[O-])=CC=C2C1=NC1(CCCCC1)N2O,"5.62 µM [falling, full curve, poor fit]","0.00794 µM [falling, full curve, poor fit]"

# A draw from above in order of molecular weight, descending.
Structure (SMILES),AC50 [1],AC50 [2]
O=C1CC[C@@H](CN(Cc2ccccc2)Cc2cn[nH]c2-c2cc3ccccc3o2)N1,"35.5 µM [falling, single point]","35.5 µM [falling, single point]"
CC(C)(C)N=C1C([N+](=O)[O-])=CC=C2C1=NC1(CCCCC1)N2O,"5.62 µM [falling, full curve, poor fit]","0.00794 µM [falling, full curve, poor fit]"
CN(/N=C/c1cc([N+](=O)[O-])ccc1O)c1ccccc1,"7.08 µM [falling, partial curve, poor fit]","3.55 µM [falling, full curve]"

# Source: PubChem BioAssay AID1487 (National Center for Advancing Translational Sciences (NCATS), 2009)
